Reference: PubChem BioAssay AID743454 (Peter MacCallum Cancer Centre, 2014)
This is an unselected part of about 18,000 reagents. 450 of them (2.5%) count as active. 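Single biological run; no consistent viability z cut-off exists, so the class columns, not z-scores, define the calls.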

Purpose: 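Knock-downs lowering viability or raising caspase 3/7 activity in vorinostat-treated resistant cells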 (primary screen)
System: human HCT116-VR colon cancer cells, selected for vorinostat resistance
Knock-down reagent: siRNA pool against human genes, 40 nM siRNA pool
Time to read-out: vorinostat for 24 h, read-out about 72 h after transfection
Challenge: vorinostat at 2.5 µM final
Measured: 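Cell viability by CellTiter-Fluor and caspase 3/7 activity by luminescence, each scaled to mock wells per plate, duplicates averaged, then robust z-scored over all plates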
Direction: viability robust z-score: higher = more viable cells than screen typical; caspase robust z-score: higher = more caspase 3/7 activity than screen typical
Rule for the call: 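Hits are knock-downs in viability class RV1/RV2 or caspase class CA1/CA2, excluding ones that killed cells in the no-drug cell-count arm; hits then retested with single siRNAs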

gene symbol,viability hit class,caspase hit class,viability robust z-score,caspase robust z-score,Outcome
POMZP3 (GeneID 22932),no change,no change,-0.28,1.45,inactive
SHOX (GeneID 6473),no change,no change,-0.34,-0.4,inactive
ESR2 (GeneID 2100),no change,no change,-0.6,2.92,inactive
SESN1 (GeneID 27244),no change,no change,1.16,-0.79,inactive
EFS (GeneID 10278),no change,no change,-0.14,1.76,inactive
TCEANC2 (GeneID 127428),no change,no change,-1.86,3.15,inactive
OR5D16 (GeneID 390144),no change,no change,0.73,-0.76,inactive
EPCIP (GeneID 56245),no change,no change,-1.04,2.92,inactive
PODXL (GeneID 5420),no change,no change,1.82,0.81,inactive
ZNF160 (GeneID 90338),no change,no change,-0.48,-0.89,inactive
GGA1 (GeneID 26088),no change,no change,-0.55,-0.24,inactive
SLC16A13 (GeneID 201232),no change,no change,-0.78,1.77,inactive
RTL10 (GeneID 79680),no change,no change,-3.96,2.48,inactive
G6PC2 (GeneID 57818),no change,no change,0.3,-0.84,inactive
KLHL24 (GeneID 54800),no change,no change,-0.59,-0.21,inactive
USB1 (GeneID 79650),no change,no change,0.12,-0.21,inactive
CSRP2 (GeneID 1466),no change,no change,-2.85,0.21,inactive
SEMG2 (GeneID 6407),no change,no change,0.15,2.49,inactive
OR1L1 (GeneID 26737),no change,no change,-0.22,-0.64,inactive
KLF9 (GeneID 687),no change,no change,-0.62,0.45,inactive
SLCO1C1 (GeneID 53919),no change,no change,0.18,-0.49,inactive
NANOS1 (GeneID 340719),no change,no change,0.16,1.42,inactive
PRTN3 (GeneID 5657),no change,no change,-4.05,1.29,inactive
LCE3A (GeneID 353142),no change,no change,-3.81,-0.38,inactive
ELK1 (GeneID 2002),no change,no change,-0.56,-0.3,inactive
XYLT1 (GeneID 64131),no change,no change,0,3.84,inactive
WASHC2A (GeneID 387680),no change,no change,-0.52,-0.94,inactive
TTC7B (GeneID 145567),no change,no change,0.54,-1.17,inactive
ENDOG (GeneID 2021),no change,no change,-0.04,0.58,inactive
RELT (GeneID 84957),no change,no change,0.42,-0.31,inactive
GH2 (GeneID 2689),no change,no change,0.62,-0.5,inactive
ADPRH (GeneID 141),no change,no change,0.82,-0.4,inactive
SCIMP (GeneID 388325),no change,no change,-0.44,-0.67,inactive
SH2D6 (GeneID 284948),no change,no change,0.64,0.5,inactive
PCYT1A (GeneID 5130),no change,no change,-0.02,-0.08,inactive
GUCA1A (GeneID 2978),no change,no change,-0.42,4.18,inactive

The list goes on, starting with the last 8 of the part before.
gene symbol,viability hit class,caspase hit class,viability robust z-score,caspase robust z-score,Outcome
ENDOG (GeneID 2021),no change,no change,-0.04,0.58,inactive
RELT (GeneID 84957),no change,no change,0.42,-0.31,inactive
GH2 (GeneID 2689),no change,no change,0.62,-0.5,inactive
ADPRH (GeneID 141),no change,no change,0.82,-0.4,inactive
SCIMP (GeneID 388325),no change,no change,-0.44,-0.67,inactive
SH2D6 (GeneID 284948),no change,no change,0.64,0.5,inactive
PCYT1A (GeneID 5130),no change,no change,-0.02,-0.08,inactive
GUCA1A (GeneID 2978),no change,no change,-0.42,4.18,inactive
RGMA (GeneID 56963),no change,no change,0.69,-0.96,inactive
ABCB9 (GeneID 23457),no change,no change,0.8,-0.54,inactive
LRRC25 (GeneID 126364),no change,no change,0.48,-0.68,inactive
CAVIN4 (GeneID 347273),no change,no change,0.42,0.2,inactive
HLA-DRA (GeneID 3122),no change,no change,0.83,-0.44,inactive
TNFRSF17 (GeneID 608),no change,no change,-1.49,3.62,inactive
MANEA (GeneID 79694),no change,no change,-0.21,-0.62,inactive
RHBDD2 (GeneID 57414),no change,no change,1.25,0.29,inactive
MCMDC2 (GeneID 157777),no change,no change,1.64,-0.14,inactive
PTER (GeneID 9317),no change,no change,0.58,-0.83,inactive
TRIM9 (GeneID 114088),no change,no change,0.5,0.05,inactive
ANGPTL5 (GeneID 253935),no change,no change,0.52,-0.8,inactive
WDR4 (GeneID 10785),no change,no change,0.31,0.24,inactive
HHIPL1 (GeneID 84439),no change,no change,0.57,-0.52,inactive
GALNT15 (GeneID 117248),no change,no change,-0.32,-1,inactive
DHX29 (GeneID 54505),no change,no change,0.42,0.45,inactive
PPP2R5E (GeneID 5529),no change,no change,0.13,0.78,inactive
TGS1 (GeneID 96764),no change,no change,-0.2,-0.52,inactive
SLC35E3 (GeneID 55508),no change,no change,-0.18,-0.27,inactive
TPT1 (GeneID 7178),no change,no change,0.92,-1.12,inactive
FATE1 (GeneID 89885),no change,no change,-3.43,1.27,inactive
